Laboratory results reported in the supplement of paper PMC10849652.
This is one part of the list.

Protein sequences, listed by entry. Tags and fused reporters are not part of them. Lines headed by an entry give the natural chain unless they say otherwise; changes in a name come on top.
UniProt Q9Y520: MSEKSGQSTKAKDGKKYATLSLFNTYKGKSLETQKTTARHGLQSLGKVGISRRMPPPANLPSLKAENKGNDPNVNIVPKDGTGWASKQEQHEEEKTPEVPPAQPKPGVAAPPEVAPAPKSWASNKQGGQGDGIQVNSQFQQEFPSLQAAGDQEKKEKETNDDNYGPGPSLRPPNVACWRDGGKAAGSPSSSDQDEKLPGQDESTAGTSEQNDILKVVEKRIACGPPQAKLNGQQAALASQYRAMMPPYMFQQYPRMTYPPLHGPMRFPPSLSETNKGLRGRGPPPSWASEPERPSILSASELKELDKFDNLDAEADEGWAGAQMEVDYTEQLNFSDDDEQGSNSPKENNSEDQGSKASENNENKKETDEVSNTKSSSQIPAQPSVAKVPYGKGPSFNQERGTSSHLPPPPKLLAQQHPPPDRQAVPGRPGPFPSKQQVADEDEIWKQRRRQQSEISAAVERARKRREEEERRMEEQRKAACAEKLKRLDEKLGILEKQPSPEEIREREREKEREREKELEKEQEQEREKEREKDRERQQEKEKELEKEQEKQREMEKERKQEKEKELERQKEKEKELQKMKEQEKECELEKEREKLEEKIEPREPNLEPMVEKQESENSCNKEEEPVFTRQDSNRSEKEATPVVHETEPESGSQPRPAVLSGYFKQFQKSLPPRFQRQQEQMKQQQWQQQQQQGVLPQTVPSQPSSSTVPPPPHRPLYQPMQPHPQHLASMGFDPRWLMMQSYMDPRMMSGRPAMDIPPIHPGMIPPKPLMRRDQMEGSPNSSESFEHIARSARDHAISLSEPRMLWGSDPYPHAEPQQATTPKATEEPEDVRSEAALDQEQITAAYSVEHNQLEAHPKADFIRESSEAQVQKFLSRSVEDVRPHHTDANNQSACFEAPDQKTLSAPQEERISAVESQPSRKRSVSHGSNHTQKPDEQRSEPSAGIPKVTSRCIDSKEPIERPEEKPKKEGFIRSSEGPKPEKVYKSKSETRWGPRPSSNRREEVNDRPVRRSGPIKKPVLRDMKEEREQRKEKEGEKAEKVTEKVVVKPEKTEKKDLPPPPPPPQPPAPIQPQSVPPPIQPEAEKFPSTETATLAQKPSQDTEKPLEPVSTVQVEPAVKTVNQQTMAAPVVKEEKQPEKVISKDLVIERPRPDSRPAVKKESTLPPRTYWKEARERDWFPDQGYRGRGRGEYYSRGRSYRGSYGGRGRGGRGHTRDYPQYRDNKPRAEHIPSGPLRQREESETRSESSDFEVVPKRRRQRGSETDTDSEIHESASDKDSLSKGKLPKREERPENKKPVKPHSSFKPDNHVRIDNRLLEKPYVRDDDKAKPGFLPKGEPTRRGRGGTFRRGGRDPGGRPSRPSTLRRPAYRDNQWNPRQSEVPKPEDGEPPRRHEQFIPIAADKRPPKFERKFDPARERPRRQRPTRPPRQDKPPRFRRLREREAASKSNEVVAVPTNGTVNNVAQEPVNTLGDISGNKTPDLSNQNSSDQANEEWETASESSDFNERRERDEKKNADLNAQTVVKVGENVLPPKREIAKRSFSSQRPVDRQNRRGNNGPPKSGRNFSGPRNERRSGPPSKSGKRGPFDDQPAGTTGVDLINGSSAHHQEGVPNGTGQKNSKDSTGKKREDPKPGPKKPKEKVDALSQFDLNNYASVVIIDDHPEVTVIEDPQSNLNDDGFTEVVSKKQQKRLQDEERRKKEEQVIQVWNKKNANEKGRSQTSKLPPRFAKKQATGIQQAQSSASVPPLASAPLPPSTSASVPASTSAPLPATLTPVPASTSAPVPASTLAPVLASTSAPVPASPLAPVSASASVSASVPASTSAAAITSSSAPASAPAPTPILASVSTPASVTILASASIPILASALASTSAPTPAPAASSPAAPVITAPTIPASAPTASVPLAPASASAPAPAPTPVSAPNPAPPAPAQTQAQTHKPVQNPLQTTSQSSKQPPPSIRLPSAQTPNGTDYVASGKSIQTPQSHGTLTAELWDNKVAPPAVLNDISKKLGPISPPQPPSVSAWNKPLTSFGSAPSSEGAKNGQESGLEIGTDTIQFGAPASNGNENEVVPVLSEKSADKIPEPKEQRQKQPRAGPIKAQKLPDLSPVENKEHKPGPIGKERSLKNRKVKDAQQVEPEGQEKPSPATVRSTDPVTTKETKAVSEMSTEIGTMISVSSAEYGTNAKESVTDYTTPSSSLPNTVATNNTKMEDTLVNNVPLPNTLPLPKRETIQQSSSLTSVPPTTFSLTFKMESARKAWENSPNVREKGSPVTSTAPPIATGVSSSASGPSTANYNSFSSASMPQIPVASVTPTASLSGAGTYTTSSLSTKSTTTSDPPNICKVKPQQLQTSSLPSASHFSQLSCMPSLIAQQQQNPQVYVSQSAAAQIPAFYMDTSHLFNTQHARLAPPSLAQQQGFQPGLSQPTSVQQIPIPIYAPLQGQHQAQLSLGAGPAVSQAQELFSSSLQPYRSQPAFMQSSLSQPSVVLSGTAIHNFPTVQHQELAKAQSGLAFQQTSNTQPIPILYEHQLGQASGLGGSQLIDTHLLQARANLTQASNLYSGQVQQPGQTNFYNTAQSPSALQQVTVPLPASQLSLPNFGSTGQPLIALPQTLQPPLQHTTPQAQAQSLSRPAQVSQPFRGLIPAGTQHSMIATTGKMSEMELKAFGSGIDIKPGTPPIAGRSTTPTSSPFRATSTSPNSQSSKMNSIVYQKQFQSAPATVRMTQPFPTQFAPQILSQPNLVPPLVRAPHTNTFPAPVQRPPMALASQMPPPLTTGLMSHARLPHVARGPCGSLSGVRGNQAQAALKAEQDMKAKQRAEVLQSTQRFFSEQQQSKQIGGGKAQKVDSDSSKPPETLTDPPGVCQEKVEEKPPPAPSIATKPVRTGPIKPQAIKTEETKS
UniProt P30041: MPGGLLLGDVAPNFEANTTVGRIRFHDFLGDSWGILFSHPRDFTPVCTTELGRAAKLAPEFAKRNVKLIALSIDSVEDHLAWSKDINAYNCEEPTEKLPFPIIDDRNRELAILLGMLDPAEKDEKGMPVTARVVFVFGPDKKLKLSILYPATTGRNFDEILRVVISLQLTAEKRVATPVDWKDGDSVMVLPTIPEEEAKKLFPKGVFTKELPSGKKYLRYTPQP
UniProt O14744, whole entry, looked up: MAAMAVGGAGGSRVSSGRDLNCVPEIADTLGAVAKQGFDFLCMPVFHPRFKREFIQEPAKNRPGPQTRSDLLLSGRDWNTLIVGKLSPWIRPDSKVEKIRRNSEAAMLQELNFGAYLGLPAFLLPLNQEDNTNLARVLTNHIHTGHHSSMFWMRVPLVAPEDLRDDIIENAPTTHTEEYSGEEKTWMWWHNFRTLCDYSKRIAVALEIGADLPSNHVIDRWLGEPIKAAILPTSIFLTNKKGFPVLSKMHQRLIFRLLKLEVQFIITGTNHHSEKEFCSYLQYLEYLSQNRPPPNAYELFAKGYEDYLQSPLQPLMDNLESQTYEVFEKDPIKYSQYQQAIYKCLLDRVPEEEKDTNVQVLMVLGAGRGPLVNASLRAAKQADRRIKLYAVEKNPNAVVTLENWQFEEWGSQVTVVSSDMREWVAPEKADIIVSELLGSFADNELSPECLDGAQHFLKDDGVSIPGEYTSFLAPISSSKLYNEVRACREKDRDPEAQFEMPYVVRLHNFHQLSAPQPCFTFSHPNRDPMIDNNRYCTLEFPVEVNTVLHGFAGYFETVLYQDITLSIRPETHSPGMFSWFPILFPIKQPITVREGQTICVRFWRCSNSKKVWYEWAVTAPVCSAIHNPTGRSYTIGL
UniProt Q13029: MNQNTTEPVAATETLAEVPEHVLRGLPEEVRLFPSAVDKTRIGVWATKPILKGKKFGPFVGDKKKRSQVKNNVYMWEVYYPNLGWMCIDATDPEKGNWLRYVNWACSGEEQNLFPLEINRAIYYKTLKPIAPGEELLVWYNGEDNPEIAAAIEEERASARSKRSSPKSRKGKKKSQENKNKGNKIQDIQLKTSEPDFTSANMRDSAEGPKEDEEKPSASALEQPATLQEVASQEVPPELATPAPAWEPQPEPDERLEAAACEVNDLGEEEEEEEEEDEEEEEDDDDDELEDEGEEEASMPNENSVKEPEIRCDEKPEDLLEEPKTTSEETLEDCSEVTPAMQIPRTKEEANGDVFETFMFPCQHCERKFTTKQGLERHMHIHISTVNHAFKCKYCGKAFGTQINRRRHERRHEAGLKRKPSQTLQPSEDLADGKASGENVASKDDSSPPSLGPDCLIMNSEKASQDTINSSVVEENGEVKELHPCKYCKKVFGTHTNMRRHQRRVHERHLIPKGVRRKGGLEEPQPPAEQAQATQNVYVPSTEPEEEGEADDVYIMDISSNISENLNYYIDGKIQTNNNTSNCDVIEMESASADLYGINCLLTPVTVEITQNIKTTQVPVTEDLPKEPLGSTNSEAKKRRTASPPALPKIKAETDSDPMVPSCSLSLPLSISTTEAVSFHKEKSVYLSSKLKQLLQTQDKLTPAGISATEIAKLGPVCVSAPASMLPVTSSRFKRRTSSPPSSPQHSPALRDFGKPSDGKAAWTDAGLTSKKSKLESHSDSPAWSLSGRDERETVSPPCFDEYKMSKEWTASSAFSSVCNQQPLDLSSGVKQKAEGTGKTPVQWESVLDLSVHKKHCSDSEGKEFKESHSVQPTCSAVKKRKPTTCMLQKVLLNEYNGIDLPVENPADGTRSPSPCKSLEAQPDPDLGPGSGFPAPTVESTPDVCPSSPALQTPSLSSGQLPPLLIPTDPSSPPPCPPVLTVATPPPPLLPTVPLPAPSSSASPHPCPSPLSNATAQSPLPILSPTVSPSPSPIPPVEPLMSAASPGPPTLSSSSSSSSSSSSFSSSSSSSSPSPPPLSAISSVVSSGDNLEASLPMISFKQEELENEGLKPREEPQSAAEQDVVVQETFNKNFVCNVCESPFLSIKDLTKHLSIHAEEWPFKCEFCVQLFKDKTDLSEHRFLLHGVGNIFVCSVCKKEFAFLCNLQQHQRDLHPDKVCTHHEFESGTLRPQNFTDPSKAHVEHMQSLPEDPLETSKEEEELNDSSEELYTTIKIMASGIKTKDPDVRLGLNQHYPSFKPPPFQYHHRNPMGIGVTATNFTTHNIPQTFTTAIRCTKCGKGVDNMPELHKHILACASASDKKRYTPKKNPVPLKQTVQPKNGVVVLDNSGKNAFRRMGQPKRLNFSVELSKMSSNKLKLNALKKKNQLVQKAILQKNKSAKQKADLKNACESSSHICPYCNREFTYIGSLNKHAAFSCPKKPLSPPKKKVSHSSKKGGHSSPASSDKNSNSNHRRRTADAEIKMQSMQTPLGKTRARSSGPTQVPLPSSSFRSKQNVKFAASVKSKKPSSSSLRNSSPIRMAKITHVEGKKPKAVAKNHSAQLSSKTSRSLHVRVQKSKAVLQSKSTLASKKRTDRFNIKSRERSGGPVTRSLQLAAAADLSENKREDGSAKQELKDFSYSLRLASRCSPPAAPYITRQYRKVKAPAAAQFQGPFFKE
UniProt Q9ULJ8: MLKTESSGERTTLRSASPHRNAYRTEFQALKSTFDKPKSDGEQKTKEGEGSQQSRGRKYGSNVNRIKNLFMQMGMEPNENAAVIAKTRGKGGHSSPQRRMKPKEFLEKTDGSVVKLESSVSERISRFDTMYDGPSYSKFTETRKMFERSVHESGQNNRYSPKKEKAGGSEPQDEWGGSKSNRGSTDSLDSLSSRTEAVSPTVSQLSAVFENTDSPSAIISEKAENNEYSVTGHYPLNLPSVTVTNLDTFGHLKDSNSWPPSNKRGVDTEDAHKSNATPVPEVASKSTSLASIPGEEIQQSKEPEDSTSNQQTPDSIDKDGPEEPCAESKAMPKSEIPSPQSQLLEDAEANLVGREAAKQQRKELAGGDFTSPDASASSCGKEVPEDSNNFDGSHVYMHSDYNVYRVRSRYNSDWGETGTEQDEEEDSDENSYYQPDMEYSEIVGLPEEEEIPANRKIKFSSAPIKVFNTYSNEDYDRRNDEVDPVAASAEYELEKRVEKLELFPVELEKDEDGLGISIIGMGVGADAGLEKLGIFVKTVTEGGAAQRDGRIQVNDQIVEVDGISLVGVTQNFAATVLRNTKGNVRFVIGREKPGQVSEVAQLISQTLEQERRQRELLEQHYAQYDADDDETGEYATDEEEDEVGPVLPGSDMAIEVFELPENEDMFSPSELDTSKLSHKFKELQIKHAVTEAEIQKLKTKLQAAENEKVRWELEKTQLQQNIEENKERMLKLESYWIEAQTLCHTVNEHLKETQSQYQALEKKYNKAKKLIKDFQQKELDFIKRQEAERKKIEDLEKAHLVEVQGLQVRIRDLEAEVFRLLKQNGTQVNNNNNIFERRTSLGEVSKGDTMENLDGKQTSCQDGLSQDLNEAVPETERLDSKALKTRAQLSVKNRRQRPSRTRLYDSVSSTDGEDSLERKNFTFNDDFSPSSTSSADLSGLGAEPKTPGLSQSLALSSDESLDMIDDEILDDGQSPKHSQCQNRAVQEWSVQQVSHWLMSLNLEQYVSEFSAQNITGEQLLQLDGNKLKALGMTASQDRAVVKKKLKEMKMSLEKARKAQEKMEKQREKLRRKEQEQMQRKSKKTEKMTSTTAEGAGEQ

Assays:
Test in all cases: log2 fold change, soluble protein after heating vs DMSO (PISA); higher = thermal stabilisation; K562 cells, 10 uM, 30 min; active = over 0.2 and 3.5 SD of the protein, either way, in both replicates (recomputed)
[1] = compound: NC(=O)Nc1cc(-c2cccc(F)c2)sc1C(=O)N[C@H]1CCCNC1
Procedure, shortened: (§1)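 K562 cells at 2×10^6 cells/mL were exposed to 10 μM compound for 30 min, then aliquots were heated for 3 min across 48°C-58°C, pooled, and extracted in PBS containing 0.5% NP-40 at 4°C. The supernatant after 21,000xg for 90 min was taken as soluble protein and measured by TMTpro 16plex LC-MS/MS with channel sums equalised. Thermal stability is reported relative to control samples, with values from duplicates. Fold changes are given on a log2 scale.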

[2] = compound: NC(=O)c1cnc(N[C@@H]2CCCC[C@@H]2N)nc1Nc1cccc(-n2nccn2)c1
Procedure, shortened: as §1

[3] = compound: NC1(c2ccc(-c3nc4ccn5c(=O)[nH]nc5c4cc3-c3ccccc3)cc2)CCC1
Procedure, shortened: as §1

[4] = compound: NCC(=O)Nc1ccc(-n2nc(C(F)(F)F)cc2-c2ccc3c(ccc4ccccc43)c2)cc1
Procedure, shortened: as §1

[5] = compound: Nc1ccccc1NC(=O)c1ccc(CNC(=O)OCc2cccnc2)cc1 [entinostat]
Procedure, shortened: as §1

[6] = compound: O=C(CCCCCCC(=O)Nc1ccccc1)NO [vorinostat]
Procedure, shortened: as §1

[7] = compound: O=C(CCCCCCNC(=O)c1cnc(N(c2ccccc2)c2ccccc2Cl)nc1)NO [citarinostat]
Procedure, shortened: as §1

[8] = compound: O=C(O)c1ccc2c(c1)nc(Nc1cccc(Cl)c1)c1ccncc12 [silmitasertib]
Procedure, shortened: as §1

[9] = compound: O=C1NC(=O)C(c2cnc3ccccn23)=C1c1cn2c3c(cc(F)cc13)CN(C(=O)N1CCCCC1)CC2
Procedure, shortened: as §1

[10] = compound: c1cc(OCCN2CCCCC2)cc(-c2n[nH]c3ccc(-c4nnc[nH]4)cc23)c1
Procedure, shortened: as §1

[11] = compound: c1cn2cc(-c3ccc4cn[nH]c4c3)nc(Nc3ccc(N4CCOCC4)cc3)c2n1 [entospletinib]
Procedure, shortened: as §1

Measured: log2 fold change

PRRC2C isoform 7 (UniProt Q9Y520)
inactive: [1] 0.039 | [2] 0.028 | [3] 0.209 | [4] 0.071 | [5] -0.062 | [6] 0 | [7] -0.057 | [8] 0.095 | [9] 0.119 | [10] -0.113 | [11] 0.067

PRDX6 (UniProt P30041)
inactive: [1] -0.037 | [2] -0.046 | [3] -0.048 | [4] 0 | [5] -0.008 | [6] -0.049 | [7] -0.007 | [8] -0.057 | [9] -0.072 | [10] 0.007 | [11] 0.024

PRMT5 (UniProt O14744)
inactive: [1] -0.008 | [2] -0.027 | [3] -0.041 | [4] -0.024 | [5] 0.025 | [6] 0.012 | [7] 0.009 | [8] -0.049 | [9] -0.023 | [10] 0.002 | [11] -0.002

PPP4R1 (UniProt Q8TF05)
inactive: [1] 0.002 | [2] -0.034 | [3] -0.143 | [4] -0.014 | [5] -0.006 | [6] 0.025 | [7] -0.035 | [8] 0.031 | [9] -0.026 | [10] 0.002 | [11] 0.014

PRDM2 (UniProt Q13029)
inactive: [2] -0.002 | [3] 0.074 | [4] 0 | [6] -0.016 | [7] -0.117 | [8] 0.022 | [9] 0.118 | [10] -0.006 | [11] -0.007

Taken from the listing (two entries):
PRRC2C isoform 7 (UniProt Q9Y520)
inactive: [1] 0.039 | [2] 0.028 | [3] 0.209 | [4] 0.071 | [5] -0.062 | [6] 0 | [7] -0.057 | [8] 0.095 | [9] 0.119 | [10] -0.113 | [11] 0.067

PRDX6 (UniProt P30041)
inactive: [1] -0.037 | [2] -0.046 | [3] -0.048 | [4] 0 | [5] -0.008 | [6] -0.049 | [7] -0.007 | [8] -0.057 | [9] -0.072 | [10] 0.007 | [11] 0.024

The list goes on:

PPP2R1B (UniProt H0YDG7)
inactive: [1] -0.473 | [3] 0.04 | [5] -0.188 | [6] -0.431 | [7] -0.269 | [8] -0.024 | [10] -0.017 | [11] 0.275

PPP1R9A isoform 3 (UniProt Q9ULJ8)
inactive: [1] 0.122 | [3] 0.139 | [4] -0.133 | [5] -0.185 | [7] -0.041 | [8] 0.21 | [9] 0.147 | [10] -0.092 | [11] 0.068
